According to paper PMC7819943, “Rice protein-binding microarrays: a tool to detect cis-acting elements near promoter regions in rice”:
The list shows a part of the results.

biological target: T1, OsSMF1 (Oryza sativa, UniProt Q6ZLB0 1-436); assay: protein-binding microarray (RPBM); PBS, 2% BSA, 51.3 ng/ul salmon testes DNA, 50 uM zinc acetate, 200 nM TF, 25 C, 1 h; high values mean tight binding; conditions: protein: recombinant; tags: N-terminal polyhistidine and DsRed monomer fusion (pET32a); chain copies: 2; label: CyDye5-dUTP incorporated in the synthesized complementary strand; 3' TTTTT single-stranded linker to array surface; dsDNA, one strand shown
T1 sequence: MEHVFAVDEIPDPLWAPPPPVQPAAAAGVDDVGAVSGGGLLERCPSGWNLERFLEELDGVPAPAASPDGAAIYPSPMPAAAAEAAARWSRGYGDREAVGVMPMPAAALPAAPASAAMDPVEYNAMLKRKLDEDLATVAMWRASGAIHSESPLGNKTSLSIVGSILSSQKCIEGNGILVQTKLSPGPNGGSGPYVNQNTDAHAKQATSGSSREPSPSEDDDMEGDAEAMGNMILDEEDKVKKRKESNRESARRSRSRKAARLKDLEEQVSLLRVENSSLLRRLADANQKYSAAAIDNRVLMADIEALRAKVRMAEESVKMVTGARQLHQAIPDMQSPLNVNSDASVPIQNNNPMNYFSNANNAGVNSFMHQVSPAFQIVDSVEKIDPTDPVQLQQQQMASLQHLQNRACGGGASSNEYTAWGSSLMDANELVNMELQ
In short: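 Using Ni–NTA, transcription factors fused N-terminally to polyhistidine and DsRed were purified after expression in E. coli BL21-CodonPlus. These were incubated at 200 nM with a blocked, double-stranded custom Agilent array for 1 h at 25 °C in a buffer containing 50 µM zinc acetate, and the array was washed. The binding signal is per-feature fluorescence intensity (arbitrary units) on an Axon 4000B scanner.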

Sequence | binding signal
CCTTTCCCTCTCCACTCTCCACCATCCTCTGCAGCTGACTCGGAGTCACCTAGTGCAG | 3330 fluorescence intensity (a.u.)
ATATTTTGCCTGTACTGTTTGACAACTCATCTTATTCAAACGGAGTCACCTAGTGCAG | 4120 fluorescence intensity (a.u.)
CTCCACGCGGTGCCACTTGTCCGTCTTCTCCTCCTGCTCCCGGAGTCACCTAGTGCAG | 3210 fluorescence intensity (a.u.)
GCATCTGAACGTGTCGAGTCACACCTGTCTGTTAGGTCCGCGGAGTCACCTAGTGCAG | 6560 fluorescence intensity (a.u.)
GGTCGATCTGGCCGTCCACGTGTCCCAGCCTGACTACCCTCGGAGTCACCTAGTGCAG | 12200 fluorescence intensity (a.u.)
GCGATGGTTATATATCGGTTGATTGTTTGCCATCTCATAGCGGAGTCACCTAGTGCAG | 4830 fluorescence intensity (a.u.)
ACCACCGGTTGTTGCGGGGCCACGCGATCCCGCCACCGTCCGGAGTCACCTAGTGCAG | 4160 fluorescence intensity (a.u.)
GGCGGCCGGGATCACGGTGCGCCGCCGTTCGGACCTACTGCGGAGTCACCTAGTGCAG | 3540 fluorescence intensity (a.u.)
GTTCATCAGCGTAGGCGTGTGTCATGTCGTAGCGAACGACCGGAGTCACCTAGTGCAG | 4380 fluorescence intensity (a.u.)
ATCGCATCGCATCGTCATCGCGACTCATCTCGCCTTAACGCGGAGTCACCTAGTGCAG | 4760 fluorescence intensity (a.u.)
ATGTTACCATGGTGGTGTCTGACTCATTGCAGTCTTATCTCGGAGTCACCTAGTGCAG | 10200 fluorescence intensity (a.u.)
ACCAACCAATCCCCGCCCGCCCATCGCCACGTGTCACCCTCGGAGTCACCTAGTGCAG | 31100 fluorescence intensity (a.u.)
CGCGCTGCGGTTGCTGACGCTGCCCATCTCGACGCGGAAGCGGAGTCACCTAGTGCAG | 4520 fluorescence intensity (a.u.)
AGATTTGCCACATGCCACGACACGCGACACGCGCGCTTGTCGGAGTCACCTAGTGCAG | 7030 fluorescence intensity (a.u.)
TCTCTGATGGATAGGTGACATGGTGTGGTGTGCTTGTTTTCGGAGTCACCTAGTGCAG | 5300 fluorescence intensity (a.u.)
AATCATTTTATTTGACTAATACACGTCAGGATTGAATGAGCGGAGTCACCTAGTGCAG | 4880 fluorescence intensity (a.u.)
GTTTTCACCCCGATTTTGGTCTACGTGGCGGCTGAGTTAGCGGAGTCACCTAGTGCAG | 15400 fluorescence intensity (a.u.)
ATAGCTGCATTCACCGTATCAATGGTTTCATGCACGACCACGGAGTCACCTAGTGCAG | 3270 fluorescence intensity (a.u.)
CCGCACCTCTCTCTACACGCACGCGTCTCTCCCATCTCCCCGGAGTCACCTAGTGCAG | 21000 fluorescence intensity (a.u.)
ATCCCTCAAGTGACTCACCTACTCTAACCGCTCCCCGGCCCGGAGTCACCTAGTGCAG | 10700 fluorescence intensity (a.u.)
CATTTGCATTGCACCAAGAGGAGATCGAGGTGTAGAGTAGCGGAGTCACCTAGTGCAG | 32200 fluorescence intensity (a.u.)
CTCCATCGCCGCCGCCGACAGCGCCACCAGCTTCGCGAGACGGAGTCACCTAGTGCAG | 3440 fluorescence intensity (a.u.)
CTACGCTTCGCACTCACGTGCCACATGGACCGTGTGCGCCCGGAGTCACCTAGTGCAG | 4020 fluorescence intensity (a.u.)
GGATCGATCTATCGATCCAGTAGAGGACGTGGCAGCCGCCCGGAGTCACCTAGTGCAG | 12600 fluorescence intensity (a.u.)
GCGGGTGGACAAGGACCGATCTTTGCCGTTGAATCAACGCCGGAGTCACCTAGTGCAG | 3160 fluorescence intensity (a.u.)
TGAACATAGCTAGGCAATACTAACACGTCCTTACTATGTTCGGAGTCACCTAGTGCAG | 4530 fluorescence intensity (a.u.)
TGCACGCTGCGGCGTACGTCGCGTGCGCACACGGGAATTTCGGAGTCACCTAGTGCAG | 3190 fluorescence intensity (a.u.)

A second format for part of the listing above:
ATATTTTGCCTGTACTGTTTGACAACTCATCTTATTCAAACGGAGTCACCTAGTGCAG
  binding signal: 4120 fluorescence intensity (a.u.)
GCGATGGTTATATATCGGTTGATTGTTTGCCATCTCATAGCGGAGTCACCTAGTGCAG
  binding signal: 4830 fluorescence intensity (a.u.)
CGCGCTGCGGTTGCTGACGCTGCCCATCTCGACGCGGAAGCGGAGTCACCTAGTGCAG
  binding signal: 4520 fluorescence intensity (a.u.)
CTACGCTTCGCACTCACGTGCCACATGGACCGTGTGCGCCCGGAGTCACCTAGTGCAG
  binding signal: 4020 fluorescence intensity (a.u.)

Next entries:

Sequence | binding signal
AAGCTGAAAGATTTTACTTGCGTCAGCTCCGGCTACCGTGCGGAGTCACCTAGTGCAG | 5780 fluorescence intensity (a.u.)
TATGAAATATCTTCCGCCTTTCCACATCACGCTTACGCTTCGGAGTCACCTAGTGCAG | 5520 fluorescence intensity (a.u.)
TTCCCATTCTATAATATGTCACTGAGTTTGTCAAGTTTTACGGAGTCACCTAGTGCAG | 3390 fluorescence intensity (a.u.)
TTGCTGAGTATGGGGTAGGCAATTGGACTTTACTGGACAACGGAGTCACCTAGTGCAG | 3190 fluorescence intensity (a.u.)
TAAGCGCCACATCAGTGCCACGTCGGATGAAGACCGAGTCCGGAGTCACCTAGTGCAG | 25000 fluorescence intensity (a.u.)
CTTCTGATGGTGTGTCAGCACCCTATCAGCTAAACCACCTCGGAGTCACCTAGTGCAG | 12100 fluorescence intensity (a.u.)
AAAGTACAATTTATGTCACATTGCCTAGTAGAAATGAGGTCGGAGTCACCTAGTGCAG | 29200 fluorescence intensity (a.u.)
GGTGCGTCTGACGTGTGGGGCCGGAGGAGATGTGGGGCCTCGGAGTCACCTAGTGCAG | 9040 fluorescence intensity (a.u.)
AATTTACAAGGTAAAATTTTATACCACCTTATATACTTTGCGGAGTCACCTAGTGCAG | 4160 fluorescence intensity (a.u.)
TGAGTTGGCAAGCACTATCGTCATCTGCTCCACAGGAGAGCGGAGTCACCTAGTGCAG | 5000 fluorescence intensity (a.u.)
CGGTTGAATTGTTCTTGGCATCATCGGGTGTAACCGTGTACGGAGTCACCTAGTGCAG | 3350 fluorescence intensity (a.u.)
TTCCATTCTTCATATTGATGTGGAATCACGAATCATGAGGCGGAGTCACCTAGTGCAG | 3270 fluorescence intensity (a.u.)
TTAATGACCAGCTTTACTTTTCCGCATTTTGAAAGGCATCCGGAGTCACCTAGTGCAG | 3300 fluorescence intensity (a.u.)
TGACTTTCTCGGATTTAATGCGTGACTTTTCATTCTTCCACGGAGTCACCTAGTGCAG | 3590 fluorescence intensity (a.u.)
CCTCCCTGCACTCCAGGCTTTTGCCGTGCAAATCAACCATCGGAGTCACCTAGTGCAG | 22200 fluorescence intensity (a.u.)
AGTATATTGTTCGATCGTCGCATGCACAAGCATATGGCGCCGGAGTCACCTAGTGCAG | 4180 fluorescence intensity (a.u.)
AAGCCGACGCGTGCCCGCCGGGTGCCCAGCTGGCACTCTCCGGAGTCACCTAGTGCAG | 4130 fluorescence intensity (a.u.)
GGCGGTCCATCCACGTGAGGAGGACACAGTTGCAAATTTCCGGAGTCACCTAGTGCAG | 3980 fluorescence intensity (a.u.)
GTGGACCGGTGTCGCGCATGTGCGCGTTAATAACCATTTGCGGAGTCACCTAGTGCAG | 4080 fluorescence intensity (a.u.)
CGGCGAAAATGACGTGGCAGACGGCCGTTCGCTCTCGGGCCGGAGTCACCTAGTGCAG | 24500 fluorescence intensity (a.u.)
AACGATTAGTGGCCTAATCATACGATTAGAAAGTTCTCATCGGAGTCACCTAGTGCAG | 3200 fluorescence intensity (a.u.)
TGCCGTGCCAACTGAGCACCCACGTTGCATCACCGCTTACCGGAGTCACCTAGTGCAG | 4430 fluorescence intensity (a.u.)
ACCCAAAACCCTCCCCTCTCTCTCTCGCCTCACCACCGCCCGGAGTCACCTAGTGCAG | 10600 fluorescence intensity (a.u.)
TCGCCATTGTCTCATGATTCGGTCCATGGTGTCAAGCGTGCGGAGTCACCTAGTGCAG | 4010 fluorescence intensity (a.u.)
TCCTCCCCGCACGCGCACGTCGGCGAGAAGGTCTGGTGGGCGGAGTCACCTAGTGCAG | 3940 fluorescence intensity (a.u.)
TCCATTAGTCGCAACTGCCATGCATGATTCTGCACCTTGACGGAGTCACCTAGTGCAG | 3460 fluorescence intensity (a.u.)
GACACGCCACATGATTTTATTGATCGGTACACGCTGCAAGCGGAGTCACCTAGTGCAG | 3430 fluorescence intensity (a.u.)
